# According to the M2OR odorant receptor database:
# Sequences of proteins named here, by UniProt entry; tags and fusion partners are left off. A line that says so, or that is headed by a name, gives the form on record, which may keep a tag or linker.
# UniProt Q7TRM0, as listed by the source: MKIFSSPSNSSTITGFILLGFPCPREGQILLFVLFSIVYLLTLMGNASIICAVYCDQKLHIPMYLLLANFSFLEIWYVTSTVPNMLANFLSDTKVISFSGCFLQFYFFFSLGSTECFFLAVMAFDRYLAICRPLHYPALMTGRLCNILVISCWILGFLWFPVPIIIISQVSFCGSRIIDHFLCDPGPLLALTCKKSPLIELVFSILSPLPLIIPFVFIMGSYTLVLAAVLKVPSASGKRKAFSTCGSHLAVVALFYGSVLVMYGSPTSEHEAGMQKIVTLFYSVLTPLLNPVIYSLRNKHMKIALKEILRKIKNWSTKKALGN
# UniProt Q7TRN9, as listed by the source: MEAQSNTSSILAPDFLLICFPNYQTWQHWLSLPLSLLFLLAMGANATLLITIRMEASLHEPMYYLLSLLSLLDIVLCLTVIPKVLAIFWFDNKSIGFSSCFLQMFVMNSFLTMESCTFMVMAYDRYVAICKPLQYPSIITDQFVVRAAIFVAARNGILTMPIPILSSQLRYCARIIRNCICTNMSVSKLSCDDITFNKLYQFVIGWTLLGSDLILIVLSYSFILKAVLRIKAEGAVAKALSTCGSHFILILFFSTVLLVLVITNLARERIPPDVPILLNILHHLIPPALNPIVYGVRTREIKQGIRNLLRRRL
# UniProt Q7TRR8, as listed by the source: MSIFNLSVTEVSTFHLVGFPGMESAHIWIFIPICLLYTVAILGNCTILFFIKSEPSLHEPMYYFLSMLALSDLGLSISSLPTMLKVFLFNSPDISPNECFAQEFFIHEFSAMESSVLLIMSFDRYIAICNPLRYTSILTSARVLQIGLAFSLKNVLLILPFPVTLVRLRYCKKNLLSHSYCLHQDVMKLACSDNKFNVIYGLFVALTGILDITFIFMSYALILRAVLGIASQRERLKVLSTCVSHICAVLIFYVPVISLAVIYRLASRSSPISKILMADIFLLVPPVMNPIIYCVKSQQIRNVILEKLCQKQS
# UniProt Q7TRR7, as listed by the source: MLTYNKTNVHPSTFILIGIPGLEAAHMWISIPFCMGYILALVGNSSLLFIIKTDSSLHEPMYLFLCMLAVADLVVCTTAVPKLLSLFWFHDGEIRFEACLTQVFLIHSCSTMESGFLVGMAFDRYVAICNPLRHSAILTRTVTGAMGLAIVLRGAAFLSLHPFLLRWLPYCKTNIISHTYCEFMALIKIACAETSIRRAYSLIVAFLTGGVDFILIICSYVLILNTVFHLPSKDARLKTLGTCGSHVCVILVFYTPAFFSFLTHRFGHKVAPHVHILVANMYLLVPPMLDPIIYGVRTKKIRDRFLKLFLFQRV
# UniProt Q7TRB8, as listed by the source: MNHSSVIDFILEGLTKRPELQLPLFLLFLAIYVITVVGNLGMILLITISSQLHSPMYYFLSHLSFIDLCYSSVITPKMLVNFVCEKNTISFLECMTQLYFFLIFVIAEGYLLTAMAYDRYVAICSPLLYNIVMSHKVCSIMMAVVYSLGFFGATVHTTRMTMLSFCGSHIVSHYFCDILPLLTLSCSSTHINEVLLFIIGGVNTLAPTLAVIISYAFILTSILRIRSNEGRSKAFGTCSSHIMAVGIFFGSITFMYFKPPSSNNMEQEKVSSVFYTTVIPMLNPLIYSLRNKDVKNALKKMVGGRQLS
# UniProt Q7TRX1, as listed by the source: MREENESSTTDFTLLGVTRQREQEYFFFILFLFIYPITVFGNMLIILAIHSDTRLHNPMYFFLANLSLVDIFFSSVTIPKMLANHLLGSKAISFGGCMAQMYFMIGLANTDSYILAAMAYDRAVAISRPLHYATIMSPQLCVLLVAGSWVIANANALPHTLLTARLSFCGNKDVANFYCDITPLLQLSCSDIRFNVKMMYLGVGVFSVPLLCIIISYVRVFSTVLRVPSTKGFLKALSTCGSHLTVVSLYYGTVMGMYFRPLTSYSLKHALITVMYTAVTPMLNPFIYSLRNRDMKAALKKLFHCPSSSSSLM
# UniProt Q7TS17, as listed by the source: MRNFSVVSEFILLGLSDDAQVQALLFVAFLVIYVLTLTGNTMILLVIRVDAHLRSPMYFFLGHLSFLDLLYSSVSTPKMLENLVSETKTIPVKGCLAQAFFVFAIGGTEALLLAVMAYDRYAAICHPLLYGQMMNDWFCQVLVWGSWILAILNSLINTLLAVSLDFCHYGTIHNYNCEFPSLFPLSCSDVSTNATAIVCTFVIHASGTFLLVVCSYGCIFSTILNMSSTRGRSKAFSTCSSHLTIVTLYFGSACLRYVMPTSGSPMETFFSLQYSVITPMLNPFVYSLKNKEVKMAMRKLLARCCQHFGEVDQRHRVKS
# Only a part is listed here, and it is no random draw. Calls are pooled over several reports, among them a noisy single-well screen.
# What was measured:
# Conditions in all cases: stereoisomer not certain
# UniProt Q7TRX0 = biological target: T1, UniProt Q7TRX0
# T1 sequence (whole entry): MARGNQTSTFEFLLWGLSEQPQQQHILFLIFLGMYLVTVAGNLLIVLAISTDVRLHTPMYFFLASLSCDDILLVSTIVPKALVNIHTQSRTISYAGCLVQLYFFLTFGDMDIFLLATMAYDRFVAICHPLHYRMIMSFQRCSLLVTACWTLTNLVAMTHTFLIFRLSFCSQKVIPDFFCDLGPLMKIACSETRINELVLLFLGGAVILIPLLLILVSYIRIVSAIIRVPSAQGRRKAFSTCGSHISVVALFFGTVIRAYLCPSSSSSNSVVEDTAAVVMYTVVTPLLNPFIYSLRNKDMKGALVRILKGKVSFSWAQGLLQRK
# Procedure, shortened: (§1)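 Each entry records the cell line, G-protein, co-transfected protein and tags used. Methods varied with the source, often transient luciferase assays in mammalian cell lines. A receptor–molecule pair is called responsive (active) if the original authors judged its signal statistically different from baseline and non-responsive (inactive) otherwise.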
# UniProt Q7TRM0 = biological target: UniProt Q7TRM0
# Procedure, shortened: as §1
# UniProt Q7TRN9 = biological target: UniProt Q7TRN9
# Procedure, shortened: as §1
# UniProt Q7TRR8 = biological target: UniProt Q7TRR8
# Procedure, shortened: as §1
# UniProt Q7TRR7 = biological target: UniProt Q7TRR7
# Procedure, shortened: as §1
# UniProt Q7TRE4 = biological target: T2, UniProt Q7TRE4
# T2 sequence (whole entry): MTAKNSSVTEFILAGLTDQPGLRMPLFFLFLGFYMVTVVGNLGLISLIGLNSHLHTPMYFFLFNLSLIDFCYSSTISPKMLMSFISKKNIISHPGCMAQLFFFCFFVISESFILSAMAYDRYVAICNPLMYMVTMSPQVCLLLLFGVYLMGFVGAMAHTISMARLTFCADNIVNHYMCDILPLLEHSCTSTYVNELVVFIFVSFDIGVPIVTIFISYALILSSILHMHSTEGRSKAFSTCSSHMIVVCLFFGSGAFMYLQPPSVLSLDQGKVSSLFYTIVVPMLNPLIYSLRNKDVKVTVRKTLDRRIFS
# Procedure, shortened: as §1
# UniProt Q7TRW1 = biological target: T3, UniProt Q7TRW1
# T3 sequence (whole entry): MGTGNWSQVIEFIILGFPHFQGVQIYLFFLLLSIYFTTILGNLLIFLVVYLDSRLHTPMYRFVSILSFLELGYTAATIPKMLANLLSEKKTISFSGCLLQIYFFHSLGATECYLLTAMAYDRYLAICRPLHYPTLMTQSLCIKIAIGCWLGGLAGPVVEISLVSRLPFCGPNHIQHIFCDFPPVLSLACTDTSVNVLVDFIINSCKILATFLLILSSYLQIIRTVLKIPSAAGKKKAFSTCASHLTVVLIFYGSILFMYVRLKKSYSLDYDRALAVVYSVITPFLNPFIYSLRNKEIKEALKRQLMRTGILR
# Procedure, shortened: as §1
# UniProt Q7TRB8 = biological target: UniProt Q7TRB8
# Procedure, shortened: as §1
# UniProt Q7TRX1 = biological target: UniProt Q7TRX1
# Procedure, shortened: as §1
# UniProt Q7TS17 = biological target: UniProt Q7TS17
# Procedure, shortened: as §1
smiles,measurement,setting,value
CC12CCC(CC1)C(C)(C)O2,odorant receptor agonist call,UniProt Q7TRX0,inactive
COc1ccccc1O,odorant receptor agonist call,UniProt Q7TRX0,inactive
CCCC(=O)O,odorant receptor agonist call,UniProt Q7TRM0,inactive
same,odorant receptor agonist call,UniProt Q7TRN9,inactive
same,odorant receptor agonist call,UniProt Q7TRR8,inactive
COc1cc(C=O)ccc1O,odorant receptor agonist call,UniProt Q7TRX0,inactive
CCCCO,odorant receptor agonist call,UniProt Q7TRX0,inactive
CC(C)=CCCC(C)=CC=O,odorant receptor agonist call,UniProt Q7TRR7,active
same,odorant receptor agonist call,UniProt Q7TRX0,inactive
CC(C)(O)CCCC1=CCC(C=O)CC1 (stereo unspecified),odorant receptor agonist call,UniProt Q7TRE4,inactive
same,odorant receptor agonist call,UniProt Q7TRW1,inactive
same,odorant receptor agonist call,UniProt Q7TRX0,inactive
CCCCCC(C)=O,odorant receptor agonist call,UniProt Q7TRE4,inactive
same,odorant receptor agonist call,UniProt Q7TRW1,inactive
same,odorant receptor agonist call,UniProt Q7TRX0,inactive
CC1COCc2cc3c(cc21)C(C)(C)C(C)C3(C)C (stereo unspecified),odorant receptor agonist call,UniProt Q7TRX0,inactive
CCCCCCCC=O,odorant receptor agonist call,UniProt Q7TRE4,inactive
same,odorant receptor agonist call,UniProt Q7TRW1,inactive
same,odorant receptor agonist call,UniProt Q7TRX0,inactive
CC(=O)OC1CC2CCC1(C)C2(C)C (stereo unspecified),odorant receptor agonist call,UniProt Q7TRX0,inactive
C=C(C)C1CC=C(C)C(=O)C1 (stereo unspecified),odorant receptor agonist call,UniProt Q7TRB8,inactive
same,odorant receptor agonist call,UniProt Q7TRE4,inactive
same,odorant receptor agonist call,UniProt Q7TRW1,inactive
same,odorant receptor agonist call,UniProt Q7TRX0,inactive
same,odorant receptor agonist call,UniProt Q7TRX1,active
same,odorant receptor agonist call,UniProt Q7TS17,inactive
CCCCCCCCCC=O,odorant receptor agonist call,UniProt Q7TRE4,inactive
same,odorant receptor agonist call,UniProt Q7TRW1,inactive
same,odorant receptor agonist call,UniProt Q7TRX0,inactive
CC12CCC(C1)C(C)(C)C2=O (stereo unspecified),odorant receptor agonist call,UniProt Q7TRE4,inactive
same,odorant receptor agonist call,UniProt Q7TRW1,inactive
C=CC(C)(O)CCC=C(C)C (stereo unspecified),odorant receptor agonist call,UniProt Q7TRX0,inactive
c1cnccn1,odorant receptor agonist call,UniProt Q7TRX0,inactive
CC(=O)C(C)=O,odorant receptor agonist call,UniProt Q7TRX0,inactive
O=C1CCCCCCCCCCCCCCO1,odorant receptor agonist call,UniProt Q7TRX0,inactive
CCCCCCCCC=O,odorant receptor agonist call,UniProt Q7TRE4,inactive
same,odorant receptor agonist call,UniProt Q7TRR7,inactive
same,odorant receptor agonist call,UniProt Q7TRW1,inactive
same,odorant receptor agonist call,UniProt Q7TRX0,inactive
CC(=O)c1ccccc1,odorant receptor agonist call,UniProt Q7TRB8,inactive
same,odorant receptor agonist call,UniProt Q7TRE4,active
same,odorant receptor agonist call,UniProt Q7TRW1,active
same,odorant receptor agonist call,UniProt Q7TRX0,inactive
same,odorant receptor agonist call,UniProt Q7TS17,inactive
CCCCCCC=O,odorant receptor agonist call,UniProt Q7TRE4,inactive
same,odorant receptor agonist call,UniProt Q7TRW1,inactive
same,odorant receptor agonist call,UniProt Q7TRX0,inactive
CCCCCOC(C)=O,odorant receptor agonist call,UniProt Q7TRX0,inactive
C=CCc1ccc(O)c(OC)c1,odorant receptor agonist call,UniProt Q7TRX0,inactive
O=C1CCCCC1,odorant receptor agonist call,UniProt Q7TRE4,inactive
same,odorant receptor agonist call,UniProt Q7TRW1,inactive
CC(C)CC(=O)O,odorant receptor agonist call,UniProt Q7TRX0,inactive
CCCCCC(=O)O,odorant receptor agonist call,UniProt Q7TRE4,inactive
same,odorant receptor agonist call,UniProt Q7TRM0,inactive
same,odorant receptor agonist call,UniProt Q7TRN9,inactive
same,odorant receptor agonist call,UniProt Q7TRR8,inactive
same,odorant receptor agonist call,UniProt Q7TRW1,inactive
same,odorant receptor agonist call,UniProt Q7TRX0,inactive
COC(=O)c1ccccc1O,odorant receptor agonist call,UniProt Q7TRX0,inactive
C=CCc1ccc(OC)c(OC)c1,odorant receptor agonist call,UniProt Q7TRX0,inactive
CC(C)C=O,odorant receptor agonist call,UniProt Q7TRX0,inactive

# Reformatted as tab-separated lines: entries from further up.
smiles	measurement	setting	value
CCCCCCCCC=O	odorant receptor agonist call	UniProt Q7TRR7	inactive
same	odorant receptor agonist call	UniProt Q7TRW1	inactive
same	odorant receptor agonist call	UniProt Q7TRX0	inactive
CC(=O)c1ccccc1	odorant receptor agonist call	UniProt Q7TRB8	inactive
same	odorant receptor agonist call	UniProt Q7TRE4	active
same	odorant receptor agonist call	UniProt Q7TRW1	active
same	odorant receptor agonist call	UniProt Q7TRX0	inactive
same	odorant receptor agonist call	UniProt Q7TS17	inactive
CCCCCCC=O	odorant receptor agonist call	UniProt Q7TRE4	inactive
same	odorant receptor agonist call	UniProt Q7TRW1	inactive
same	odorant receptor agonist call	UniProt Q7TRX0	inactive
CCCCCOC(C)=O	odorant receptor agonist call	UniProt Q7TRX0	inactive
